# Source: PubChem BioAssay AID1259308 (NCATS, 2017)
# Purpose: 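Genes whose loss raises luciferase production in HEK293 cells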 (primary screen)
# Cell system: human HEK293 embryonic kidney cells stably expressing firefly luciferase (HEK-CMV-Luc2-Hygro)
# Knock-down reagent: single siRNA against human genes, 0.8 pmol siRNA per well
# Timing: 72 h
# Measurement: 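Reporter luminescence and viable-cell signal on separate replicate plates, given as percent of non-targeting control and median/MAD z-scores, plus per-cell luciferase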
# Scale: total luciferase, z-score and total luciferase, % of control: higher = more reporter protein produced; luciferase per cell, z-score: higher = more reporter output per viable cell; viable cells, % of control: higher = more viable cells
# Call rule: 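An siRNA counts as active if its total luciferase robust z-score exceeds 3; genes with two or more such siRNAs out of three were retested with fresh siRNAs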
# Meaning of the calls: active = raised luciferase; inactive = no rise
# The deposit covers about 59,000 reagents; this is a random part of them. About 1,510 of all reagents (2.6%) were called active. 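Calls use total luciferase alone and ignore viability, so some active siRNAs may act by altering cell number.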 Reagents against one gene are numbered here.
target,reagent,"total luciferase, z-score","total luciferase, % of control","luciferase per cell, z-score","viable cells, % of control",activity call
MRPL46,1,2.99,141,2.21,88.3,inactive
MRPL46,2,-1.68,48.4,-1.19,74,inactive
MRPL46,3,-0.671,68.5,-0.277,82.4,inactive
SMARCAD1,1,0.786,97.5,1.29,77.6,inactive
SMARCAD1,2,-1.48,52.5,-0.998,76.2,inactive
SMARCAD1,3,0.886,99.5,1.24,80.2,inactive
BFSP1,1,-0.268,76.5,-0.363,94.1,inactive
BFSP1,2,0.374,89.3,0.077,97.8,inactive
BFSP1,3,-0.291,76.1,0.389,76.8,inactive
IL23R,1,0.771,97.2,0.724,89.8,inactive
IL23R,2,-0.648,69,-0.781,94.7,inactive
IL23R,3,1.08,103,0.699,96,inactive
TSLIG2,1,-0.965,62.7,-0.535,80.7,inactive
TSLIG2,2,0.324,88.3,0.0136,98.4,inactive
TSLIG2,3,0.698,95.8,1.53,71.6,inactive
TNRC6B,1,0.655,94.9,-0.324,116,inactive
TNRC6B,2,-0.305,75.8,-0.864,106,inactive
TNRC6B,3,0.288,87.6,0.48,86.3,inactive

Just “total luciferase, % of control” (3 entries from above):
TSLIG2 #2	88.3
TSLIG2 #3	95.8
TNRC6B #1	94.9

Further records follow.
target,reagent,"total luciferase, z-score","total luciferase, % of control","luciferase per cell, z-score","viable cells, % of control",activity call
STK39,1,1.13,104,0.773,95.2,inactive
STK39,2,-0.751,66.9,0.047,73.9,inactive
STK39,3,-0.518,71.6,0.0699,78.5,inactive
LONP1,1,-0.179,78.3,0.667,73.4,inactive
LONP1,2,-1.37,54.5,-1.9,100,inactive
LONP1,3,1.8,118,0.985,101,inactive
ZNF75A,1,0.406,90,-0.412,112,inactive
ZNF75A,2,-0.579,70.4,-0.627,92.7,inactive
ZNF75A,3,-0.606,69.8,-0.66,92.9,inactive
LRRC34,1,-0.0797,80.3,0.0315,89,inactive
LRRC34,2,0.498,91.8,0.648,86.5,inactive
LRRC34,3,-0.195,78,-0.566,101,inactive
HDIP1,1,0.806,97.9,0.736,90.1,inactive
HDIP1,2,-0.961,62.8,-0.541,80.9,inactive
HDIP1,3,0.0152,82.2,0.162,88,inactive
SFRP1,1,-0.5,71.9,-0.103,82.6,inactive
SFRP1,2,-0.182,78.3,-0.126,90.4,inactive
SFRP1,3,0,81.9,-0.339,100,inactive
SHOC1,1,-1.41,53.8,-0.553,69.6,inactive
SHOC1,2,0.369,89.2,0.384,90.1,inactive
SHOC1,3,0.527,92.4,0.433,92.1,inactive
